Data published in patent publication US9448243B2, “Weak affinity chromatography” (priority 2013, dated 2016).

Assay: Chromatography of steroids on blank diol-silica column without binding ligand (column A)
Conditions: 20° C.
[1] = 5 mM Am-Ac buffer pH 6.9, no ligand

SMILES	k′ (capacity factor), Column A [1]	k′ (capacity factor), Column A (PBS buffer pH 7.4, no ligand)
C[C@]12CCC(=O)C=C1CC[C@@H]1[C@@H]2C(=O)C[C@@]2(C)[C@H]1CC[C@]2(O)C(=O)CO [Cortisone, cortisone]	0.15	0.24
C[C@]12C=CC(=O)C=C1CC[C@@H]1[C@@H]2[C@@H](O)C[C@@]2(C)[C@H]1CC[C@]2(O)C(=O)CO [Prednisolone, prednisolone]	0.15	0.22
C[C@]12CCC(=O)C=C1CC[C@@H]1[C@@H]2[C@@H](O)C[C@@]2(C)[C@H]1CC[C@]2(O)C(=O)CO [Hydrocortisone, hydrocortisone]	0.15	0.21
